Assay results as given in patent US20190345225A1 (KEROS THERAPEUTICS, published 2019).
These are yes or no findings as the source states them, for the method shown. Some results given as binding are weak or reduced against the parent protein; the word gives no strength. Sequences can lack the tags named with a protein.

Target: T1, growth differentiation factor 11 (GDF11) (UniProt O95390)
T1 sequence (looked up): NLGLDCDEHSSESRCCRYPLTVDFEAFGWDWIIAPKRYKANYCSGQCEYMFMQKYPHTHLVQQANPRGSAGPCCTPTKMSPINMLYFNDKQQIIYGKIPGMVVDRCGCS
Experiment: SPR, Biacore 3000; receptor fusion captured on chip, ligand in solution

- binding: binds
B1: ActRIIa/b+ (SEQ ID NO: 150) fused to the N-terminus of hFc through a GGG linker (Fc fusion)
chain: GAILGRSETQECLFYNANWELERTNQTGVERCEGEKDKRLHCYATWRNISGSIEIVAKGCWLDDFNCYDRTDCVETEENPQVYFCCCEGNMCNEKFSYFPEMEVTQPTSGGG
notes: also called ActRIIab+ variant; not shown: human Fc (hFc)
